This series deals with DrLigA (Deinococcus radiodurans) (UniProt Q9RSQ5). Put plainly: EMSA. The conditions noted are these: 5 mM MgSO4, 5 mM MnSO4, 300 µM NAD+, 100 nM DNA, weak at 10-fold protein, none, 5' end of flap not phosphorylated, 20 mM Bis-Tris pH 6.0, 5 mM MgSO4, 5 mM MnSO4, 300 µM NAD+, 25% glycerol, 15 min at room temperature, 6% PAGE, 1x TBE, 4 °C, recombinant protein, protein details: N-terminal His6-TEV, tag cleaved, label: 5'-FAM on F1 (S9).

The exact form of at least one protein or probe is not confirmed. A weaker result is weaker than the reference pair of the same experiment.

On to “ATTGAGTGGACAAAGTATCGTAGGGTAGTATTGGTGGATA / TATCCACCAATACTACCCTA / TAACGCTGGGCGATACTTTGTCCACTCAAT”, for which the binding result is recorded as “binds more weakly”.
